According to US7939495B2 (Caregen Co., Ltd, priority 2005, dated 2011):
*: point of attachment. Fmoc = O=C(OCC1c2ccccc2-c2ccccc21)*; Palmitoyl = CCCCCCCCCCCCCCCC(=O)*; For = O=C*

Tests used:
[1] = general procedure: Fmoc solid-phase peptide synthesis; Rink amide resin; Bop/HoBt/DIEA; details: whole synthesis; for crude yield: scale of the general procedure 1 mmole
[2] = general procedure: Fmoc solid-phase peptide synthesis; Fmoc-Rink amide resin (Nova Biochem 01-64-0013); chloro trityl chloride resin (Nova Biochem 01-64-0021); Bop/HoBt/DIEA; details: whole synthesis; for final HPLC purity: high performance liquid chromatography; for final HPLC purity / isolated yield / crude yield: scale of the general procedure 1 mmole
[3] = general procedure: Fmoc solid-phase peptide synthesis; CTL resin; Bop/HoBt/DIEA; details: whole synthesis; for crude yield: scale of the general procedure 1 mmole

With Ac-YRSRKYTSWY-NH2 the crude mass [1] was 0.93 g, the crude yield [1] was 62.3% and the “final HPLC purity” value [2] was 92%. For the same substance, the isolated yield [2] was 48%.
Substance Ac-YRSRKYTSWY-OH has a crude mass [3] of 0.98 g, a crude yield [3] of 65.7% and an isolated mass [2] of 0.72 g. For the same substance, the “final HPLC purity” value [2] was 96% and the isolated yield [2] was 70.9%.
Work on Fmoc-YRSRKYTSWY-NH2 yielded a crude mass [1] of 1.18 g and a crude yield [1] of 70.6%.
In the case of Fmoc-YRSRKYTSWY-OH, the crude mass [3] is reported as 1.3 g and the crude yield [3] is reported as 77.7%.
For-YRSRKYTSWY-NH2 gave a crude mass [2] of 1.03 g and a crude yield [2] of 69.7%.
Substance For-YRSRKYTSWY-OH has a crude mass [2] of 1.28 g and a crude yield [2] of 86.6%.
For Myristyl-YRSRKYTSWY-NH2, the crude mass [2] was 1.26 g and the crude yield [2] was 75.2%.
Myristyl-YRSRKYTSWY-OH gave a crude mass [2] of 1.52 g and a crude yield [2] of 90.6%.
Work on Palmitoyl-YRSRKYTSWY-OH yielded a crude mass [2] of 1.33 g and a crude yield [2] of 73.4%.
In the case of Stearyl-YRSRKYTSWY-NH2, the crude mass [2] is reported as 1.34 g and the crude yield [2] is reported as 77.4%.
For Stearyl-YRSRKYTSWY-OH, the crude mass [2] was 1.35 g and the crude yield [2] was 77.9%.
